Some test systems named below: OR9K2 clone 1389; OR9Q1 A2V clone 1713; OR9Q2 C179R clone 1310; OR9Q2 clone 1177; OR9Q2 clone 1501; pseudo clone 1035; pseudo clone 1218; pseudo clone 1380; pseudo clone 1384; pseudo clone 1417.
Common to all, as to assay: odorant receptor activation (CRE luciferase / Renilla) (fold of no-odor wells); higher = more activation
Conditions in all cases: 100 µM

Chains of the proteins cited; added tags and fusions are not shown. Chains listed by the source or under a name are the forms on record and can include a tag or linker.
pseudo, as listed by the source: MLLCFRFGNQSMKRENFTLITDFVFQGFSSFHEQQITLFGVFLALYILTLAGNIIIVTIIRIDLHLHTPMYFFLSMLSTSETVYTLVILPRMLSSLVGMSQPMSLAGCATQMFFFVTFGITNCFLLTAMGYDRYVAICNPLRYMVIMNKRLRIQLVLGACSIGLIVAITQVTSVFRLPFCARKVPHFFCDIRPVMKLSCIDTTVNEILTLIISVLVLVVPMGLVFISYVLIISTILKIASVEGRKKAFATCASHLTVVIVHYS

“And” between values parts separate entries of the source, which are not always exact repeats. Identical values can stand only once. This is one part of the list. Each value is one well over the wells without odorant, computed here; the data are noisy.

Consider `CS` [methanethiol], for which the odorant receptor activation was found to be 0.867 with OR9K2 clone 1389; 1.42 in the experiment with OR9Q1 A2V clone 1713; 0.894 in the experiment with OR9Q2 C179R clone 1310; 1.2 in the experiment with OR9Q2 clone 1177; 0.74 in the experiment with OR9Q2 clone 1501; 1 in the experiment on pseudo clone 1035. Besides, the odorant receptor activation in the experiment with pseudo clone 1218 was found to be 1.21; in the experiment with pseudo clone 1380, 0.88; in the experiment with pseudo clone 1384, 1.08; in the experiment with pseudo clone 1417, 0.68.
As to `CCOc1cc(C=O)ccc1O` [ethyl vanillin], the odorant receptor activation with OR9K2 clone 1389 was 1.03 and 1.23; in the experiment on OR9Q1 A2V clone 1713, 1.26; in the experiment on OR9Q2 C179R clone 1310 it was 2.33 and 1.09; with OR9Q2 clone 1177 it was 1.57 and 1.02; with OR9Q2 clone 1501, 1.24 and 1.94 and 1.13; in the experiment with pseudo clone 1035, 1.19 and 0.89. Further, the odorant receptor activation in the experiment on pseudo clone 1218 is 1.3 and 1.17; in the experiment with pseudo clone 1380, 1.17 and 1.11; in the experiment on pseudo clone 1384 it was 1.11 and 1.16; with pseudo clone 1417 it was 0.886 and 1.65.
`CCC(C)=O` [2-butanone]: the odorant receptor activation with OR9K2 clone 1389 was 1.56; in the experiment with OR9Q1 A2V clone 1713, 0.736; in the experiment with OR9Q2 C179R clone 1310, 0.798; with OR9Q2 clone 1177, 0.76; with OR9Q2 clone 1501, 1.15; in the experiment with pseudo clone 1035, 2.74. Also, the odorant receptor activation was 0.758 with pseudo clone 1218, 0.939 in the experiment on pseudo clone 1380, 0.998 with pseudo clone 1384 and 0.719 in the experiment on pseudo clone 1417.
With `CCCCOC(C)=O` [butyl acetate], the odorant receptor activation with OR9K2 clone 1389 was 0.197; with OR9Q1 A2V clone 1713, 0.714; in the experiment with OR9Q2 C179R clone 1310, 0.945; with OR9Q2 clone 1177, 1.05; in the experiment on OR9Q2 clone 1501 it was 1.28; in the experiment with pseudo clone 1035, 1.09. The odorant receptor activation in the experiment on pseudo clone 1218 was found to be 1.13; in the experiment on pseudo clone 1380, 0.284; in the experiment on pseudo clone 1384, 0.172; in the experiment with pseudo clone 1417, 0.23.
